{"source": "paper PMC7819943", "about": "“Rice protein-binding microarrays: a tool to detect cis-acting elements near promoter regions in rice”", "note": "The list shows a part of the results.", "data": [{"target": "T1, OsSMF1 (Oryza sativa, UniProt Q6ZLB0 1-436)", "T1 sequence": "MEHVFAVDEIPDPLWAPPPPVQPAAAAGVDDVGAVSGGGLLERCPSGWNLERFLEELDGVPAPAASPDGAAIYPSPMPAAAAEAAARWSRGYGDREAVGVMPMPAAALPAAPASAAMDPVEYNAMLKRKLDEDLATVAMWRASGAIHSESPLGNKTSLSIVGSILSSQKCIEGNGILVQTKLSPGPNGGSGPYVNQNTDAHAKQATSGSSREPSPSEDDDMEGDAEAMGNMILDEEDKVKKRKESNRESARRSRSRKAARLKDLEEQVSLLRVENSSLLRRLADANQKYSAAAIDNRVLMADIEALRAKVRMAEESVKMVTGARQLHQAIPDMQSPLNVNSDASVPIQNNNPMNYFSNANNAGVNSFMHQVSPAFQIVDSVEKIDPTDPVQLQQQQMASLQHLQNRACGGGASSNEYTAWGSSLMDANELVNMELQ", "assay": "protein-binding microarray (RPBM); PBS, 2% BSA, 51.3 ng/ul salmon testes DNA, 50 uM zinc acetate, 200 nM TF, 25 C, 1 h; high values mean tight binding", "details": "protein: recombinant; tags: N-terminal polyhistidine and DsRed monomer fusion (pET32a); chain copies: 2; label: CyDye5-dUTP incorporated in the synthesized complementary strand; 3' TTTTT single-stranded linker to array surface; dsDNA, one strand shown", "in_short": "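Using Ni–NTA, transcription factors fused N-terminally to polyhistidine and DsRed were purified after expression in E. coli BL21-CodonPlus. These were incubated at 200 nM with a blocked, double-stranded custom Agilent array for 1 h at 25 °C in a buffer containing 50 µM zinc acetate, and the array was washed. The binding signal is per-feature fluorescence intensity (arbitrary units) on an Axon 4000B scanner.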", "values": [{"sequence": "TGCTGTAGCAAGGAGGCACGTGACGCAAGCATCAACGTCACGGAGTCACCTAGTGCAG", "binding signal": "5480 fluorescence intensity (a.u.)"}, {"sequence": "TCCTCCACATCATCATTTGAGTCTATATGGCATCTTGGAACGGAGTCACCTAGTGCAG", "binding signal": "9760 fluorescence intensity (a.u.)"}, {"sequence": "CCTCTGTGAATCACTGCTCAAACATACCCCTAGGACCTGTCGGAGTCACCTAGTGCAG", "binding signal": "3630 fluorescence intensity (a.u.)"}, {"sequence": "CTGAACACACCATCGTCATTCACAGGTATGGTAAAAGGGCCGGAGTCACCTAGTGCAG", "binding signal": "5100 fluorescence intensity (a.u.)"}, {"sequence": "TAATATTCAATAACTCCTATGGTGACGTCAAGCATCAATACGGAGTCACCTAGTGCAG", "binding signal": "10000 fluorescence intensity (a.u.)"}, {"sequence": "GATGCAAAGAGAGCTACTAGCTGAGTTGGATGGAATTAACCGGAGTCACCTAGTGCAG", "binding signal": "5550 fluorescence intensity (a.u.)"}, {"sequence": "CTCGGTGGGTGCAGGGTCCCAACGGGGCCGAGGGAAGGTGCGGAGTCACCTAGTGCAG", "binding signal": "3260 fluorescence intensity (a.u.)"}, {"sequence": "GCTCGAGCCCACATGTCAGCGTCCGCGTGGCCCGGCTTCCCGGAGTCACCTAGTGCAG", "binding signal": "3260 fluorescence intensity (a.u.)"}, {"sequence": "ACTCCACGAGTCATCGAGTCGTGAGGAGTGACAACACGTTCGGAGTCACCTAGTGCAG", "binding signal": "4740 fluorescence intensity (a.u.)"}, {"sequence": "CAATGTTTAGCCTATGACAATGTGGATGCACTACTTAATACGGAGTCACCTAGTGCAG", "binding signal": "3160 fluorescence intensity (a.u.)"}, {"sequence": "AGAGGGACGTCGACGCGTGGTGCCGTGGTGGTGTCGCTCGCGGAGTCACCTAGTGCAG", "binding signal": "3400 fluorescence intensity (a.u.)"}, {"sequence": "TAATAACAACCTAGTACAGAAATCAAACTTGGTTTTGCTGCGGAGTCACCTAGTGCAG", "binding signal": "7980 fluorescence intensity (a.u.)"}, {"sequence": "AAAAGAATCACCATTAAACTAAAACCACATCACCAGTTCACGGAGTCACCTAGTGCAG", "binding signal": "4660 fluorescence intensity (a.u.)"}, {"sequence": "ACCGTTGAAGTCTGAATAACATACATAGCTTGTAATATTGCGGAGTCACCTAGTGCAG", "binding signal": "16400 fluorescence intensity (a.u.)"}, {"sequence": "GGGCATTTGCATCATTCAACCACGTGGTCGTTACATTATACGGAGTCACCTAGTGCAG", "binding signal": "3740 fluorescence intensity (a.u.)"}, {"sequence": "CATAAAACCACATCATCTTATTTTATATTTAAATCATCATCGGAGTCACCTAGTGCAG", "binding signal": "4300 fluorescence intensity (a.u.)"}, {"sequence": "TCACCCATTAACGACATGGGCTCTCCACGTTCAGCCATGGCGGAGTCACCTAGTGCAG", "binding signal": "3300 fluorescence intensity (a.u.)"}, {"sequence": "TTTCCTTTTGTTGACTAGGATGTCATGTTAGTGAAACCAACGGAGTCACCTAGTGCAG", "binding signal": "14600 fluorescence intensity (a.u.)"}, {"sequence": "AAAACGTAATCCCTTCGTCCCTTAATATAAGAGATTTTGACGGAGTCACCTAGTGCAG", "binding signal": "25600 fluorescence intensity (a.u.)"}, {"sequence": "AAGTGCCTACCAAGCCAGCATCGTGTCATAGCCGGAGCATCGGAGTCACCTAGTGCAG", "binding signal": "3730 fluorescence intensity (a.u.)"}, {"sequence": "GTCGAGCAATCCTTCATCAAAACACCATCACCAACGAGTCCGGAGTCACCTAGTGCAG", "binding signal": "3780 fluorescence intensity (a.u.)"}, {"sequence": "AGTAGCGAGATCCAACGGCTCAGGACATCGCCACGTGGCGCGGAGTCACCTAGTGCAG", "binding signal": "27700 fluorescence intensity (a.u.)"}, {"sequence": "AGTGATGCGGGACCCGATGATGAGTGAGGCTGACATGTGGCGGAGTCACCTAGTGCAG", "binding signal": "4920 fluorescence intensity (a.u.)"}, {"sequence": "GGACGAGTGCGGCGGCGACAACCATGGCGGATGAGGGCGGCGGAGTCACCTAGTGCAG", "binding signal": "4250 fluorescence intensity (a.u.)"}, {"sequence": "ACACCACGTATGGTAGTGGCACGCACGTGGCTGACCCGGACGGAGTCACCTAGTGCAG", "binding signal": "7140 fluorescence intensity (a.u.)"}, {"sequence": "AGCCTGTTGTGTTCCTCCATGGCGGCCCTGGAGCTGGCACCGGAGTCACCTAGTGCAG", "binding signal": "3260 fluorescence intensity (a.u.)"}, {"sequence": "ACAGCAAAGCTGCACTTTCAGGGGCTATCGCAAGATCAATCGGAGTCACCTAGTGCAG", "binding signal": "4440 fluorescence intensity (a.u.)"}, {"sequence": "GGCGCCAGCGCCACGCGTCGACTCCTCATTGGCTCCCACCCGGAGTCACCTAGTGCAG", "binding signal": "8630 fluorescence intensity (a.u.)"}, {"sequence": "ACCAAGCTCTTCCCGTGCACGTGTGGTAGGCAGAACGTGCCGGAGTCACCTAGTGCAG", "binding signal": "3540 fluorescence intensity (a.u.)"}, {"sequence": "GATGACACGTGCCTTGTGATGTCAACGCTATGTGCCGCCTCGGAGTCACCTAGTGCAG", "binding signal": "10300 fluorescence intensity (a.u.)"}, {"sequence": "TCAAACCAGGGACTTTGCGTGGAGGAGAGGGGCGGCGGGGCGGAGTCACCTAGTGCAG", "binding signal": "5960 fluorescence intensity (a.u.)"}, {"sequence": "GCTGGCCAGCCGCGGCCACGCCGTCACCTTCGTCTCCACGCGGAGTCACCTAGTGCAG", "binding signal": "3530 fluorescence intensity (a.u.)"}, {"sequence": "CCTGTGCGCCGCCGTGTCCTGTTGTTGGAGAGCTGTCGCCCGGAGTCACCTAGTGCAG", "binding signal": "4420 fluorescence intensity (a.u.)"}, {"sequence": "CTGCTTAATTACTTCAGCCTTTACACATCAGCATATCATACGGAGTCACCTAGTGCAG", "binding signal": "10500 fluorescence intensity (a.u.)"}, {"sequence": "GTAGCTCTGTAAACCCCGCGTGTCGGTGTCGGTGGGCGGGCGGAGTCACCTAGTGCAG", "binding signal": "3290 fluorescence intensity (a.u.)"}, {"sequence": "GAAGGAGTAGATTAATGTCTTCTACTGGGACTGTCCGTCACGGAGTCACCTAGTGCAG", "binding signal": "8980 fluorescence intensity (a.u.)"}, {"sequence": "CCAGTAGAAAGAGCAACGTGGCGGGCAGTGTCGTCTTCTTCGGAGTCACCTAGTGCAG", "binding signal": "7700 fluorescence intensity (a.u.)"}, {"sequence": "TCACCTTTCACTTCATCCATCTCTACACATCAGCAATATTCGGAGTCACCTAGTGCAG", "binding signal": "7280 fluorescence intensity (a.u.)"}, {"sequence": "GCACACCTTCCCTTGATGTCAGCTTTGATAGTGTTGAGGTCGGAGTCACCTAGTGCAG", "binding signal": "3760 fluorescence intensity (a.u.)"}, {"sequence": "TGTGCCCTCTCCGTTCGATCCAGGAAAATGATAGTGTGATCGGAGTCACCTAGTGCAG", "binding signal": "50200 fluorescence intensity (a.u.)"}, {"sequence": "CAGCGTCGCACGCTTTTCACGCCATGCCGTCACGGTGCCTCGGAGTCACCTAGTGCAG", "binding signal": "4080 fluorescence intensity (a.u.)"}, {"sequence": "GATCGACTACGACGATGCCTTCGCTCCCGTGGCACAGATGCGGAGTCACCTAGTGCAG", "binding signal": "3390 fluorescence intensity (a.u.)"}]}]}
